These are yes or no findings as the source states them, for the method shown. Values belong to the substance of their own block, whether it stands above or below them.
How the values were obtained:
[1] = target: TRIM25 RING/B-box1 (1–152) (UniProt Q14258); assay: SAXS; batch SAXS, Diamond Light Source beamline B21; at least three dilutions of each construct; concentrations as in Table 2; both purified
[2] = target: TRIM25 RING/B-box1 (1–152) (UniProt Q14258); assay: SEC-MALS; SEC-MALLS, Superdex 75 or Superdex 200 10/300 GL, 25°C, 20 mM HEPES pH 7.5, 100 mM NaCl (TRIM32) or 150 mM NaCl (TRIM25), 0.5 mM TCEP, 3 mM NaN3; samples run over a range of concentrations; both purified
[3] = target: TRIM25 RING/B-box1+2 (1–202) (UniProt Q14258); assay: SAXS; batch SAXS, Diamond Light Source beamline B21; at least three dilutions of each construct; concentrations as in Table 2; both purified
[4] = target: TRIM25 RING/B-box1+2 (1–202) (UniProt Q14258); assay: SEC-MALS; SEC-MALLS, Superdex 75 or Superdex 200 10/300 GL, 25°C, 20 mM HEPES pH 7.5, 100 mM NaCl (TRIM32) or 150 mM NaCl (TRIM25), 0.5 mM TCEP, 3 mM NaN3; samples run over a range of concentrations; both purified
[5] = target: TRIM32 core RING construct (UniProt Q13049); assay: SAXS; batch SAXS, Diamond Light Source beamline B21; at least three dilutions of each construct; concentrations as in Table 2; both purified
[6] = target: TRIM32 core RING construct (UniProt Q13049); assay: SEC-MALS; SEC-MALLS, Superdex 75 or Superdex 200 10/300 GL, 25°C, 20 mM HEPES pH 7.5, 100 mM NaCl (TRIM32) or 150 mM NaCl (TRIM25), 0.5 mM TCEP, 3 mM NaN3; samples run over a range of concentrations; both purified

Amino acid sequences for entries named in this document (tags omitted). Residues count along the entry.
TRIM25 RING/B-box1+2 (1–202) (Q14258, residues 1-202): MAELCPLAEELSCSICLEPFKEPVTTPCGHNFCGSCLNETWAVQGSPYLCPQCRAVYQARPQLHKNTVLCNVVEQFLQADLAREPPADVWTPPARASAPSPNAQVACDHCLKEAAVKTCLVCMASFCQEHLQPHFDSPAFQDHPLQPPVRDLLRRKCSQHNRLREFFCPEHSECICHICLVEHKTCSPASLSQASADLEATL
TRIM25 RING/B-box1 (1–152) (Q14258, residues 1-152): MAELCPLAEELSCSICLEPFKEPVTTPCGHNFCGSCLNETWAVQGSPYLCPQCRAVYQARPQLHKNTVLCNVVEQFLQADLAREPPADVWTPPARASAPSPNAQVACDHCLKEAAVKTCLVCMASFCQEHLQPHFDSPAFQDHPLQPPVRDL
UniProt Q13049, residues 10-84: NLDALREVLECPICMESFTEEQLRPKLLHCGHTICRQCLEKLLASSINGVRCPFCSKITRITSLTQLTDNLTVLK

binding [1]: no binding (tested: 3.5 mg/ml)
binding [2]: no binding (tested: 3.2 mg/ml)
Substance: TRIM25 RING/B-box1 (1–152) (from UniProt Q14258 1-152) (domain or fragment)

binding [3]: no binding (tested: 3.5 mg/ml)
binding [4]: no binding (tested: 3.6 mg/ml)
Substance: TRIM25 RING/B-box1+2 (1–202) (from UniProt Q14258 1-202) (domain or fragment)

binding [5]: no binding (tested: 2.0 mg/ml)
binding [6]: no binding (tested: 3 mg/ml)
Substance: TRIM32 core RING construct (from UniProt Q13049 10-84) (domain or fragment)

— publication PMC4864278
